Measured values from publication PMC4507774, “Arabidopsis seed-specific vacuolar aquaporins are involved in maintaining seed longevity under the control of ABSCISIC ACID INSENSITIVE 3”.
For at least one entry, the source does not settle the construct or the ends of the probe. At least one result comes from cells or an extract, where the contact may be indirect. At least one verdict rests on a figure or table, not on a statement of the authors. Where a protein sequence is shown, tags need not be part of it.

Biological target: T1, ABI3-GST full-length (UniProt Q01593)
T1 sequence (looked up): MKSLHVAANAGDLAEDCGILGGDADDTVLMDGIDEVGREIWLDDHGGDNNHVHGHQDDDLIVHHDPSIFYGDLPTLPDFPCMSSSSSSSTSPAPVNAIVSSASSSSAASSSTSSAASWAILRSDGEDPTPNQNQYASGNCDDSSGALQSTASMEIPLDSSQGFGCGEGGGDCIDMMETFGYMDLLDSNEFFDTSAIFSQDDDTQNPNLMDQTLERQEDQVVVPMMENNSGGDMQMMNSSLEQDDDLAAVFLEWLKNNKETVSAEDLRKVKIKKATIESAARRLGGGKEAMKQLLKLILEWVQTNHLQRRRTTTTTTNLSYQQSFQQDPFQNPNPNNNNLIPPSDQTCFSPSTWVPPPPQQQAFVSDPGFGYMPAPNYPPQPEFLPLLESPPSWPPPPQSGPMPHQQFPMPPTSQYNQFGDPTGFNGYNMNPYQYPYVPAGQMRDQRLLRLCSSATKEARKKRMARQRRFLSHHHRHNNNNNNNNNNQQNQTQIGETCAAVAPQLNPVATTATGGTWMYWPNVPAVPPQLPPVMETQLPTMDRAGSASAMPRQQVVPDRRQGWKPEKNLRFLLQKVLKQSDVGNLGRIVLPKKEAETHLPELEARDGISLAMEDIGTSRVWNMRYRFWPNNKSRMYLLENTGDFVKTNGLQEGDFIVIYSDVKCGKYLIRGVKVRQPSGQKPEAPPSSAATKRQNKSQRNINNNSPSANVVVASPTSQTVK
Assay: DPI-ELISA
Details: E. coli extract, anti-GST-HRP; protein in a lysate after overexpression; residues 1-720; protein details: GST (pGEX-4T-1); label: biotin

“ATCTACTTGGCACACATGCATGCTTAGTCAACACA (double strand) [31RY2-bio (TIP3;1 promoter RY2)]”: binds.
